PubChem BioAssay AID504804 | Drosophila RNAi Screening Center | 2011
Assay: 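dsRNAs that improve Kc cell survival under doxorubicin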 (primary screen). Cells: Drosophila Kc cells. Reagent: long dsRNA against Drosophila genes, 0.5 µg dsRNA per well. Time to read-out: 96 h (48 h knock-down, then 48 h drug). Challenge: doxorubicin 5 µg/ml for 48 h, added 48 h after dsRNA. Measured: 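Luminescent ATP counts per replicate, not normalised, reflecting viable cells after 48 h dsRNA knock-down followed by 48 h of 5 µg/ml doxorubicin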. Reading the numbers: raw ATP luminescence: higher = more viable cells, protection from doxorubicin. Active means: 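z-score of 2 or more over plate mean in both duplicates, retained only when retests and separate dsRNAs confirm the protection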.
The screen tested about 19,000 reagents; shown is a random part of those with a known target gene and a result. In the full data, 47 (0.25%) were called active. 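Signals are raw, not normalised; exact z-scores behind calls not deposited; actives needed confirmation, so some wells reaching 2 SD are inactive.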 Unmarked entries are inactive. Names joined by + are all predicted targets of the reagent. No sequences are given here.

target gene	amplicon	raw ATP luminescence, replicate 1	raw ATP luminescence, replicate 2
Gr59e (GeneID 37725)	DRSC04276	44027	54537
COX6CL (GeneID 318868)	DRSC00895	2.66e5	2.77e5
Or35a (GeneID 34918)	DRSC03389	57477	77383
Pcmt (GeneID 40668)	DRSC12363	57263	56250
CG2100 (GeneID 40707)	DRSC12303	80283	31543
CG5707 (GeneID 48422)	DRSC08573	60500	50863
fng (GeneID 40314)	DRSC11455	62440	74057
fng (GeneID 40314)	DRSC11887	20533	19820
CG43127 (GeneID 8673982)	DRSC09039	1.99e5	1.92e5
TpnC25D (GeneID 33752)	DRSC02965	33310	35483
CG34354 (GeneID 5740528)	DRSC13863	2.50e5	2.47e5
CG34354 (GeneID 5740528)	DRSC14515	18860	16070
CG34354 (GeneID 5740528)	DRSC14558	11960	11010
CG34354 (GeneID 5740528)	DRSC15645	73740	47450
Pal1 (GeneID 36033)	DRSC06106	62783	57190
CG17742 (retired record) (GeneID 38787)	DRSC10285	31433	45543
CG4598 (GeneID 34315)	DRSC02763	46177	47880
CG6154 (GeneID 43184)	DRSC15977	65050	68660
Obp57e (GeneID 326110)	DRSC05891	1.25e5	1.04e5
wit (GeneID 44096)	DRSC08741	53713	44513
CG14075 (GeneID 40071)	DRSC10080	58570	56523
CG42633 (GeneID 8674052)	DRSC16061	51713	72213
trx (GeneID 41737)	DRSC17089	48257	22503
CG3594 (GeneID 37964)	DRSC04393	56833	38250
wls (GeneID 39259)	DRSC10605	41347	51723
Tsf3 (GeneID 36800)	DRSC06849	56833	60063
AANATL7 (GeneID 31236)	DRSC18616	54630	44460
fred (GeneID 33613)	DRSC00349	26430	36290
fred (GeneID 33613)	DRSC00599	28953	25260
fred (GeneID 33613)	DRSC00601	27650	26783
fred (GeneID 33613)	DRSC00602	25557	30873
CG7453 (GeneID 32903)	DRSC20046	3.50e5	3.00e5
CG32643 (GeneID 318138)	DRSC18962	2.00e5	2.15e5
Nubp2 (GeneID 40282)	DRSC11758	68790	54613
Ctr1C (GeneID 43668)	DRSC15089	59120	43910
Desat1 (GeneID 117369)	DRSC16668	51917	60503
CG4707 (GeneID 37935)	DRSC04483	75367	64067
CG33178 (GeneID 318913)	DRSC19950	3.84e5	3.44e5
FASN2 (GeneID 117361)	DRSC00167	2.64e5	2.35e5
FASN2 (GeneID 117361)	DRSC00610	94573	80050
CG18636 (GeneID 2768923)	DRSC02685	74933	60043
rols (GeneID 39368)	DRSC09873	76933	59763
rols (GeneID 39368)	DRSC10254	86237	82797
rols (GeneID 39368)	DRSC10536	76843	69860
IKKepsilon (GeneID 35329)	DRSC03550	52487	60333
RpL31 (GeneID 35988)	DRSC06716	23367	31777
CG12795 (GeneID 33561)	DRSC00354	28480	34230
CG7841 (GeneID 39672)	DRSC10922	45833	33410
Saf-B (GeneID 42958)	DRSC16167	38973	45090
Tsp42Er (GeneID 35629)	DRSC06183	33390	62370
Cyp40 (GeneID 39121)	DRSC10980	35487	32010
MBD-like (GeneID 41151)	DRSC16996	59313	61357
Ip6k (GeneID 37465)	DRSC04054	56087	82097
hfw (GeneID 31120)	DRSC18506	59130	54100
unc-13 (GeneID 43841)	DRSC17192	2.48e5	2.40e5
unc-13 (GeneID 43841)	DRSC17193	2.36e5	2.22e5
SWIP (GeneID 32594)	DRSC19540	3.11e5	2.37e5
CG31999 (GeneID 43777)	DRSC17131	54850	46280
CG31999 (GeneID 43777)	DRSC17133	47740	44400
Baldspot (GeneID 39860)	DRSC09671	82120	54950
unc-5 (GeneID 36703)	DRSC05545	76017	90653
Dyrk3 (GeneID 3885567)	DRSC21055	1.98e5	1.93e5
CG14931 (GeneID 34588)	DRSC02413	22033	58300

Continued; the last 4 above are carried over.
target gene	amplicon	raw ATP luminescence, replicate 1	raw ATP luminescence, replicate 2
Baldspot (GeneID 39860)	DRSC09671	82120	54950
unc-5 (GeneID 36703)	DRSC05545	76017	90653
Dyrk3 (GeneID 3885567)	DRSC21055	1.98e5	1.93e5
CG14931 (GeneID 34588)	DRSC02413	22033	58300
alphaKap4 (GeneID 38675)	DRSC09823	72420	79990
trbd (GeneID 41179)	DRSC16494	43337	39067
TTLL6B (GeneID 43282)	DRSC15932	57630	44620
CG34423 + Mthfs	DRSC04088	45473	53140
slo (GeneID 42940)	DRSC17057	50560	45970
Dsk (GeneID 45845)	DRSC12347	73070	70507
wun2 (GeneID 53558)	DRSC07566	48953	84887
Osi8 (GeneID 40762)	DRSC12277	55587	51800
Efa6 (GeneID 42665)	DRSC13569	1.98e5	1.97e5
Efa6 (GeneID 42665)	DRSC15312	29620	24250
Efa6 (GeneID 42665)	DRSC16141	55260	54480
CG42795 (GeneID 41252)	DRSC12772	72850	89660
CG42795 (GeneID 41252)	DRSC15533	66717	52003
blanks (GeneID 38620)	DRSC09757	70973	62517
CG13795 (GeneID 34049)	DRSC02299	43580	64653
Utx (GeneID 34377)	DRSC02872	44517	80903
CG16734 (GeneID 41100)	DRSC15143	50920	61857
CG31635 (GeneID 33928)	DRSC02273	22893	24290
CG31635 (GeneID 33928)	DRSC02274	28173	20473
Taf13 (GeneID 35297)	DRSC02106	53143	67353
wkd (GeneID 41390)	DRSC15777	61010	46013
CG42490 (retired record) (GeneID 8674118)	DRSC01649	2.42e5	2.28e5
amon (GeneID 43215)	DRSC13784	1.94e5	2.00e5
amon (GeneID 43215)	DRSC16900	38090	37520
CG18480 (GeneID 34920)	DRSC01957	70177	74720
CG10479 (GeneID 38674)	DRSC09733	45240	32840
CG18301 (GeneID 34451)	DRSC02662	42717	81550
CG42552 (retired record) (GeneID 8674047)	DRSC11512	74347	47453
CG6983 (GeneID 38964)	DRSC10757	42357	31880
Acp53C14c (GeneID 3346203)	DRSC05626	1.70e5	1.43e5
Dpp10 (GeneID 33923)	DRSC00942	2.73e5	2.67e5
Dpp10 (GeneID 33923)	DRSC02139	31187	40503
CG3719 (GeneID 44736)	DRSC18493	1.56e5	1.87e5
CG31249 (GeneID 42129)	DRSC16248	44790	33140
CG34316 (GeneID 5740757)	DRSC13080	2.17e5	1.98e5
TORIP (GeneID 40158)	DRSC10104	24803	24360
Jheh1 (GeneID 251984)	DRSC06529	57553	55113
wde (GeneID 36133)	DRSC05955	52887	47690
CG14095 (GeneID 40112)	DRSC10098	74627	71787
dac (GeneID 34982)	DRSC03518	54400	77827
CG4594 (GeneID 34316)	DRSC02762	1.00e5	68023
Ttc19 (GeneID 35172)	DRSC02474	55527	67083
CG3939 (GeneID 31295)	DRSC18498	53190	37930
CG32726 (GeneID 318175)	DRSC17521	1.86e5	1.82e5
